The other results are listed elsewhere or left out.
How the values were obtained:
Experiment in all cases: log2 fold change, soluble protein after heating vs DMSO (PISA); higher = thermal stabilisation; K562 lysate, 10 uM; active = over 0.2 and 3.5 SD of the protein, either way, in both replicates (recomputed)
ibrutinib = compound: C=CC(=O)N1CCC[C@@H](n2nc(-c3ccc(Oc4ccccc4)cc3)c3c(N)ncnc32)C1 [ibrutinib]
Procedure, shortened: (§1)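 Soluble protein was defined as the supernatant remaining after 21,000xg for 90 min, following pooling of heated aliquots and adjustment to 0.5% NP-40 at 4°C. Before that, crude K562 extract at 1 mg/mL protein in PBS pH 7.4 with 1 mM MgCl2 was treated with 10 μM compound for 30 min and heated for 3 min across 48°C-58°C. Quantification used TMTpro 16plex LC-MS/MS with channel sums equalised, and values are log-two fold changes in thermal stability relative to solvent controls from duplicates.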

Protein sequences, listed by entry. Tags and fused reporters are not part of them. Lines headed by an entry give the natural chain unless they say otherwise; changes in a name come on top.
UniProt Q96RU2: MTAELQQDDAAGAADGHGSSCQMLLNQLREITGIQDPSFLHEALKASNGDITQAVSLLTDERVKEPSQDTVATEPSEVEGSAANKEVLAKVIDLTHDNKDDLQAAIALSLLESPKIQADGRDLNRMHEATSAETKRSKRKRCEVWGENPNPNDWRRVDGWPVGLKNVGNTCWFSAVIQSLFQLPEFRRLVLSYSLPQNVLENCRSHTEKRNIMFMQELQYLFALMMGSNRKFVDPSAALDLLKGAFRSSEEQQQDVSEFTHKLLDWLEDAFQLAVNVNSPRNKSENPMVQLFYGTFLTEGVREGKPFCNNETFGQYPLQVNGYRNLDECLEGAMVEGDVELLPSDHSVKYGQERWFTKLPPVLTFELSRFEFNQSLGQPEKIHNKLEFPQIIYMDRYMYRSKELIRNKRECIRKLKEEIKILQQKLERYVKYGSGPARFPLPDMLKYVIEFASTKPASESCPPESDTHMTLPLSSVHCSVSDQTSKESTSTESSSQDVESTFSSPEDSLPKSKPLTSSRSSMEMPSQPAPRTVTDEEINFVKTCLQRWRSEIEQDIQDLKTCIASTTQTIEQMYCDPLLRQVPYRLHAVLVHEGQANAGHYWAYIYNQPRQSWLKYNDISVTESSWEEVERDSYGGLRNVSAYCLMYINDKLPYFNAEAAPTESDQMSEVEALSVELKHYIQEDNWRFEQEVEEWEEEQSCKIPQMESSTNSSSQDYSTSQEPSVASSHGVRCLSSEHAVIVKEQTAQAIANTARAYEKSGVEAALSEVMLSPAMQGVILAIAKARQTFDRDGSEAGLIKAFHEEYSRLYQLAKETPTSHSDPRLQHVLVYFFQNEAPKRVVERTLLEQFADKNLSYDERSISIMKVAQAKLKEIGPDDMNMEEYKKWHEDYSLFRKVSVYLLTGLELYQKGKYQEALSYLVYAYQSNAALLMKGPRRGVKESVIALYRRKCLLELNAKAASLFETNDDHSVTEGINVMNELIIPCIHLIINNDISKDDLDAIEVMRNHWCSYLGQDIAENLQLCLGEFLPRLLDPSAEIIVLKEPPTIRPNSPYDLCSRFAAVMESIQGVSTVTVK
UniProt Q8NB14: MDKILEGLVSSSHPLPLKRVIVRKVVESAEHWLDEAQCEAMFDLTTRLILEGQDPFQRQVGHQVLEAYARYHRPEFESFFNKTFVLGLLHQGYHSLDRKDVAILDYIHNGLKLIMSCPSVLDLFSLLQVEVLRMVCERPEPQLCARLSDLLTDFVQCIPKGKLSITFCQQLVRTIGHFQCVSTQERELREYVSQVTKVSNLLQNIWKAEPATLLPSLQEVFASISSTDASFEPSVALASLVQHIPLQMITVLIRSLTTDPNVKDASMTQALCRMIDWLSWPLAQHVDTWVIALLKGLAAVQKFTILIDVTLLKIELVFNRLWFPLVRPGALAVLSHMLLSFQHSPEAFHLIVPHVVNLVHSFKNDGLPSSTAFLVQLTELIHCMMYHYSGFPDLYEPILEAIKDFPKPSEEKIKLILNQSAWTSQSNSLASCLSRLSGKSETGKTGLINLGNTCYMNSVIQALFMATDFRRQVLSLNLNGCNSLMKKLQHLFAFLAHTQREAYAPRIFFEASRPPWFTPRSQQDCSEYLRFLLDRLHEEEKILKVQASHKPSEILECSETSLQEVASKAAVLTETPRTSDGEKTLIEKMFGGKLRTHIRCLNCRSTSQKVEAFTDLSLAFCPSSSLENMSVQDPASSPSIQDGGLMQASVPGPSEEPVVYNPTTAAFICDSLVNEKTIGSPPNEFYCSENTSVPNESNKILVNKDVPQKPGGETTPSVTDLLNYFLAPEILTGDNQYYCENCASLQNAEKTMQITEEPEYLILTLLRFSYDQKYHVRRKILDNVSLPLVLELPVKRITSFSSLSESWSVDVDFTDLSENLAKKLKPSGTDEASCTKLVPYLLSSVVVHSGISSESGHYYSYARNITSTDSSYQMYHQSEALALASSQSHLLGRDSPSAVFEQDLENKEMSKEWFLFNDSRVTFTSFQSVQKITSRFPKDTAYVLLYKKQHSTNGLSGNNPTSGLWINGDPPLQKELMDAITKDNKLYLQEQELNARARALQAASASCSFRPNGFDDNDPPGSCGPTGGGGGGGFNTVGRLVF
UniProt Q15836, whole entry, looked up: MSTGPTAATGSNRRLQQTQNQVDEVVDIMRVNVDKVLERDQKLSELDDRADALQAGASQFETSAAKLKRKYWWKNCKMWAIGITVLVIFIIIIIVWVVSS
UniProt P40337, whole entry, looked up: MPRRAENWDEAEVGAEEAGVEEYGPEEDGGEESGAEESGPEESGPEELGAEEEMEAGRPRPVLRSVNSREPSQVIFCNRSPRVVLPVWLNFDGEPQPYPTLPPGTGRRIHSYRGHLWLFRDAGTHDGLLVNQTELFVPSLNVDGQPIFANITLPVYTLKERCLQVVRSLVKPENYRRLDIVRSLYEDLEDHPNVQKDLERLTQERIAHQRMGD
UniProt Q9ULK5: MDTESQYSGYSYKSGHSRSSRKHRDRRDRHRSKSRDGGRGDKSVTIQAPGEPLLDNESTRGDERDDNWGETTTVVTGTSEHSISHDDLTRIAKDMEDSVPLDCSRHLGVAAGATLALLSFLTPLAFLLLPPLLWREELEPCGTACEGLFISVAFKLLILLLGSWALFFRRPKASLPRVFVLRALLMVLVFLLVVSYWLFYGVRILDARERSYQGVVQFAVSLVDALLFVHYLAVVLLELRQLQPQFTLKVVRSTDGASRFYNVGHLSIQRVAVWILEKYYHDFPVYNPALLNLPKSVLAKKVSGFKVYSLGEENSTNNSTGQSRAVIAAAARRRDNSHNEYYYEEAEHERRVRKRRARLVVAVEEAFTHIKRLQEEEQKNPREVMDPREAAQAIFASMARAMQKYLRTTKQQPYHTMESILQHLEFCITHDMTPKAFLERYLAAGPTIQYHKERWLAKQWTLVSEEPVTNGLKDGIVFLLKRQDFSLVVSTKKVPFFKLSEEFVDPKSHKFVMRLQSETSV
UniProt P62068, whole entry, looked up: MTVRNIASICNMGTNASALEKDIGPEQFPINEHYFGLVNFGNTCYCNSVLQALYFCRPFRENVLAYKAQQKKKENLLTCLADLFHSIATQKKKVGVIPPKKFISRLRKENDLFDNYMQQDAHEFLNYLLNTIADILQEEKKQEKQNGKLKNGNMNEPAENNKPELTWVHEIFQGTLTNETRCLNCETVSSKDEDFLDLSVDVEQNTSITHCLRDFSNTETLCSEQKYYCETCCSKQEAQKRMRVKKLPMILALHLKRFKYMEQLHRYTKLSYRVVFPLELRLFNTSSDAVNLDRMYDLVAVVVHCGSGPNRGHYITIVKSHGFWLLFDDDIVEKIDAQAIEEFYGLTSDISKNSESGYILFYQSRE
UniProt Q16739: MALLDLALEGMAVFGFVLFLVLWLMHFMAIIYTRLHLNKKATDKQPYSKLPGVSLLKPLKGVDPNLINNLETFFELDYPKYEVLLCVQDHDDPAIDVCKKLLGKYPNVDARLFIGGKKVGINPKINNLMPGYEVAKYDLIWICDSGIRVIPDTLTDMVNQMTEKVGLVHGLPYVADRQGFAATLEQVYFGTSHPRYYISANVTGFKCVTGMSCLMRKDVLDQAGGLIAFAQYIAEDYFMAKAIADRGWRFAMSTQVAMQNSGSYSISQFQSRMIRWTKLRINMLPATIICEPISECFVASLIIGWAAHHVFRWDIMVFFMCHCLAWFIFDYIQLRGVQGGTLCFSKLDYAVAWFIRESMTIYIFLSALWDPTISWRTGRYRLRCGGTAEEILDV
UniProt P13051, whole entry, looked up: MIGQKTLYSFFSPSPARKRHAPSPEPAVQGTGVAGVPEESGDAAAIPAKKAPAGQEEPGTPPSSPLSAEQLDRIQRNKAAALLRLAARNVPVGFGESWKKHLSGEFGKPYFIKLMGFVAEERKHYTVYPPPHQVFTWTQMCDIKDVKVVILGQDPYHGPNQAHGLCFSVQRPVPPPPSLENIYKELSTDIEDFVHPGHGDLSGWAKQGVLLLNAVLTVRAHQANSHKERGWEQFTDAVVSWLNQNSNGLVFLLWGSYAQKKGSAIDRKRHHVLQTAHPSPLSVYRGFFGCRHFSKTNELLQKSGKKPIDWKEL
UniProt P09327: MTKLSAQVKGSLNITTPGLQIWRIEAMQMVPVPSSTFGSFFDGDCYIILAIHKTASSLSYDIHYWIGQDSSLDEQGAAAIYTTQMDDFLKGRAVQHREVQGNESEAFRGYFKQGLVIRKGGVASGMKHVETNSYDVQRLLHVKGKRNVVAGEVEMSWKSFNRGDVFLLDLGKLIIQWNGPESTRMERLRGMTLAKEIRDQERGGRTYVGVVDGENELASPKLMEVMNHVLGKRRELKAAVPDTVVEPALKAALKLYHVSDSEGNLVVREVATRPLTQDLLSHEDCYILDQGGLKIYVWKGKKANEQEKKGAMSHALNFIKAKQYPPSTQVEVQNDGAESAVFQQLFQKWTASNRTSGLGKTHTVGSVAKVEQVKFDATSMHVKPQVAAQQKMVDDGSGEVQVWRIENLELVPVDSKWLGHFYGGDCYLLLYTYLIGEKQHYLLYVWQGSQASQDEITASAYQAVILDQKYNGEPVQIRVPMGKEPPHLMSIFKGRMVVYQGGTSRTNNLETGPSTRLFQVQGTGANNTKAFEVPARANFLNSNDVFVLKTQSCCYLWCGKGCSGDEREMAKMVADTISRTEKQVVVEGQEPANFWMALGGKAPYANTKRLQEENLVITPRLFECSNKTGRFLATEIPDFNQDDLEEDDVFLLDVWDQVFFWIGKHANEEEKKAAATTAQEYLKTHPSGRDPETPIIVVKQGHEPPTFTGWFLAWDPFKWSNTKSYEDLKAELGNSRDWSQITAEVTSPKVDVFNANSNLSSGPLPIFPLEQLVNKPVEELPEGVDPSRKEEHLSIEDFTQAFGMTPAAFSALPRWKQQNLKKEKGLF
UniProt Q9BTM9: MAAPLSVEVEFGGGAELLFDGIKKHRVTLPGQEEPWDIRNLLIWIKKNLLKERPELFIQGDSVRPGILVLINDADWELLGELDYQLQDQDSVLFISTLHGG

[1] = compound: CC(=O)c1cnc2ccc(-c3cc(Cl)c(O)c(Cl)c3)nc2c1N[C@H]1CC[C@H](CN(C)C)CC1
Procedure, shortened: as §1

ralimetinib = compound: CC(C)(C)Cn1c(N)nc2ccc(-c3[nH]c(C(C)(C)C)nc3-c3ccc(F)cc3)nc21 [ralimetinib]
Procedure, shortened: as §1

[2] = compound: CC(C)(O)CC(=O)NCCn1ccc2ncnc(Nc3ccc(Oc4cccc(C(F)(F)F)c4)c(Cl)c3)c21
Procedure, shortened: as §1

[3] = compound: CC(C)C1=C2N=C(C=C(N2N=C1)NCC3=CC=CC=C3)NCCCCCCN
Procedure, shortened: as §1

[4] = compound: CC1=C(C(CC(=O)N1)C2=CC=C(C=C2)C(F)(F)F)C(=O)NC3=C(C=C4C(=C3)C=NN4)F
Procedure, shortened: as §1

[5] = compound: CC1=C(C2=C(C=C1)C(=O)C3=CC=CC=C3N2CCCN)C
Procedure, shortened: as §1

[6] = compound: CC1=C(C=C(C=C1)NC(=O)C2=CC(=CC=C2)C(C)(C)C#N)NC3=CC4=C(C=C3)N=CN(C4=O)C
Procedure, shortened: as §1

[7] = compound: CC1=C(C=C(C=C1)NC(=O)C2=CC(=CC=C2)N(C)C)NC(=O)C3=CC=C(C=C3)O
Procedure, shortened: as §1

[8] = compound: CC1=CC=C(C=C1)SC2=C3C=C(SC3=CN=C2)C(=O)N
Procedure, shortened: as §1

vemurafenib = compound: CCCS(=O)(=O)Nc1ccc(F)c(C(=O)c2c[nH]c3ncc(-c4ccc(Cl)cc4)cc23)c1F [vemurafenib]
Procedure, shortened: as §1

[9] = compound: CCCS(=O)(=O)Nc1ccc(F)c(C(=O)c2c[nH]c3ncc(Cl)cc23)c1F
Procedure, shortened: as §1

barasertib = compound: CCN(CCCOc1ccc2c(Nc3cc(CC(=O)Nc4cccc(F)c4)[nH]n3)ncnc2c1)CCOP(=O)(O)O [barasertib]
Procedure, shortened: as §1

[10] = compound: CC[C@@H]1C(=O)N(C)c2cnc(Nc3ccc(C(=O)NC4CCN(C)CC4)cc3OC)nc2N1C1CCCC1
Procedure, shortened: as §1

volasertib = compound: CC[C@@H]1C(=O)N(C)c2cnc(Nc3ccc(C(=O)N[C@H]4CC[C@H](N5CCN(CC6CC6)CC5)CC4)cc3OC)nc2N1C(C)C [volasertib]
Procedure, shortened: as §1

[11] = compound: CCn1c(C(=O)N(C2CC2)C2CC2)cc2c3c(ncn3C)c(Nc3cc(C)n(C)n3)nc21
Procedure, shortened: as §1

[12] = compound: CCn1cc(-c2ccnc3[nH]c(-c4cccc(CN(C)C)c4)cc23)c(-c2ccc(NC(=O)N(C)C)cc2)n1
Procedure, shortened: as §1

[13] = compound: CN1CCC(CNc2ccc3ncc(-c4cccc(OC(F)(F)F)c4)n3n2)CC1
Procedure, shortened: as §1

saracatinib = compound: CN1CCN(CCOc2cc(OC3CCOCC3)c3c(Nc4c(Cl)ccc5c4OCO5)ncnc3c2)CC1 [saracatinib]
Procedure, shortened: as §1

sotrastaurin = compound: CN1CCN(c2nc(C3=C(c4c[nH]c5ccccc45)C(=O)NC3=O)c3ccccc3n2)CC1 [sotrastaurin]
Procedure, shortened: as §1

Measured: log2 fold change

USP28 isoform 2 (UniProt Q96RU2)
inactive: ibrutinib 0.026 | [1] -0.02 | ralimetinib 0.043 | [2] 0.041 | [3] -0.004 | [4] -0.036 | [5] 0.012 | [6] 0.004 | [7] 0.02 | [8] 0.027 | vemurafenib -0.048 | [9] 0.013 | barasertib -0.041 | [10] 0.034 | volasertib -0.022 | [11] -0.003 | [12] -0.032 | [13] 0.009 | saracatinib 0.02 | sotrastaurin -0.011

USP38 (UniProt Q8NB14)
inactive: ibrutinib -0.132 | [1] -0.073 | ralimetinib -0.047 | [2] -0.095 | [4] 0.042 | [5] 0.018 | [6] 0.006 | [7] 0.061 | [8] -0.093 | vemurafenib 0.107 | [9] 0.046 | barasertib 0.048 | [10] -0.042 | volasertib -0.019 | [11] 0.013 | [12] 0.133 | [13] -0.113 | saracatinib 0.009 | sotrastaurin -0.092

VAMP3 (UniProt Q15836)
inactive: ibrutinib -0.044 | [1] -0.006 | ralimetinib 0.043 | [2] 0.056 | [3] 0.012 | [4] 0.03 | [5] 0.013 | [6] 0.164 | [7] -0.027 | [8] 0.002 | vemurafenib 0.056 | [9] -0.05 | barasertib -0.006 | [10] 0.093 | volasertib 0.095 | [11] -0.102 | [12] 0.023 | [13] 0.033 | saracatinib 0.096 | sotrastaurin -0.067

VHL (UniProt P40337)
inactive: ibrutinib 0.033 | ralimetinib 0.09 | [2] -0.027 | [3] 0.06 | [4] -0.045 | [5] -0.109 | [6] -0.013 | [7] 0.024 | vemurafenib 0.027 | barasertib -0.005 | [10] -0.065 | [11] -0.054 | [12] 0.11 | [13] -0.086 | saracatinib 0.019 | sotrastaurin -0.038

VCX3B (UniProt Q9H321)
inactive: ibrutinib -0.052 | [1] -0.045 | ralimetinib 0.001 | [2] 0.07 | [3] -0.04 | [4] 0.048 | [5] 0.067 | [6] 0.001 | [7] 0.113 | [8] -0.019 | [9] 0.003 | barasertib 0.009 | [10] -0.01 | volasertib 0.008 | [11] -0.099 | [12] 0.009 | [13] -0.022 | saracatinib 0.033 | sotrastaurin -0.069

VANGL2 (UniProt Q9ULK5)
inactive: ibrutinib 0 | [1] -0.183 | ralimetinib -0.06 | [2] -0.124 | [3] -0.005 | [5] 0.184 | [6] 0.236 | [7] 0.121 | [8] -0.223 | [9] 0.059 | barasertib 0.033 | volasertib -0.007 | [11] -0.086 | [12] -0.128 | [13] -0.039 | saracatinib -0.097 | sotrastaurin -0.058

USP5 (UniProt F5H571)
inactive: ibrutinib 0.072 | [1] 0.036 | [4] 0.118 | [8] 0.005 | [9] -0.067 | barasertib 0.123 | volasertib -0.12

USP46 (UniProt P62068)
inactive: ibrutinib -0.129 | [1] 0.027 | [6] 0.009 | [8] 0.041 | [9] 0.009 | barasertib 0.051 | volasertib 0.145 | sotrastaurin -0.013

UGCG (UniProt Q16739)
inactive: ibrutinib -0.136 | ralimetinib 0.061 | [2] -0.023 | [3] 0.079 | [4] 0.041 | [5] -0.211 | [6] -0.026 | [7] -0.001 | vemurafenib -0.027 | barasertib 0.269 | [11] -0.131 | saracatinib -0.027 | sotrastaurin 0.025

UNG (UniProt P13051)
inactive: ibrutinib 0.061 | ralimetinib 0.145 | [2] 0.014 | [3] -0.019 | [5] 0.02 | [7] 0.033 | barasertib 0.097 | [10] -0.107 | [11] 0.177 | [12] 0.034 | [13] -0.05 | saracatinib 0.051

VIL1 (UniProt P09327)
inactive: ibrutinib -0.142 | [1] -0.052 | ralimetinib 0.13 | [2] 0.017 | [3] 0.002 | [5] -0.021 | [6] 0.002 | [7] -0.162 | [8] 0.035 | vemurafenib 0.036 | [9] 0.14 | barasertib 0.177 | [10] -0.032 | volasertib -0.188 | [11] 0.052 | [12] 0.04 | [13] 0.06 | saracatinib -0.087 | sotrastaurin -0.011

URM1 isoform 2 (UniProt Q9BTM9)
inactive: ibrutinib -0.007 | [1] -0.083 | ralimetinib 0.059 | [2] 0.048 | [3] -0.03 | [4] -0.033 | [5] 0.014 | [7] 0.068 | [8] -0.032 | vemurafenib 0.011 | [9] -0.009 | barasertib -0.122 | [10] -0.024 | volasertib 0.007 | [11] -0.062 | [12] -0.034 | [13] -0.041 | saracatinib 0.12

From the supplement of paper PMC10849652
